± gives the standard deviation of the averaged measurements. The list shows a part of the results. Most values come without repeats; read them as rough.

The test concerns RAW 264.7 macrophages infected with S. aureus JE2-lux. In words: host macrophage viability (CellTiter-Fluor) relative to DMSO vehicle; higher = more viable host cells. The following applies: 10 µM; treatment time 4 h; gentamicin 50 µg/ml.
Regarding `O=C(Nc1cccc(N2CCCC2)c1)c1cc(-c2ccccn2)n[nH]1`, the host macrophage viability turned out to be 113%. To `COC(=O)c1ccc(COc2coc(CN3c4ccccc4CC3C)cc2=O)cc1` (stereo not drawn) belongs 107%; to `CCOC(=O)c1c(NC(=O)c2cc(Cl)ccc2[N+](=O)[O-])sc(C)c1C`, 138%; to `CCOc1ccc(C(=O)C2CCN(CC(=O)Nc3nccs3)CC2)cc1`, 125%. The figure for `Cc1cc(NS(=O)(=O)c2ccc(NC(=O)c3cc4c(ccc5ccccc54)oc3=O)cc2)no1` is 106%. The figure for `CC(C)CNC(=O)c1cncc(NS(=O)(=O)c2ccc3c(c2)OCCO3)c1` is 116%. On to `O=c1[nH]c2ccc(S(=O)(=O)Nc3ccccc3O)cc2[nH]1`, for which the host macrophage viability stood at 121%. To `Cc1c(C(=O)O)sc2nc(SCC(=O)O)[nH]c(=O)c12` belongs 111%. The figure for `Cc1c[nH]c(=O)nc1SCC(=O)NC1CCCCC1` is 121%; for `Cc1ccc(CN2CCc3nc(SCC(=O)Nc4cccc(C)c4C)[nH]c(=O)c3C2)cc1` it is 137%. To `CCC(=O)Nc1cccnc1-c1ccc(C(=O)NCc2cccc(OC)c2)cc1` belongs 130%. Turning to `COc1ccc(N2CCN(C(=O)CSc3nnc4c(n3)[nH]c3ccccc34)CC2)cc1`, the host macrophage viability was found to be 112%. To `O=C1NC(=O)C2C1C(c1ccc(Cl)cc1)NN2Cc1ccccc1` (stereo not drawn) belongs 118%; to `Cc1cc(C)nc(N2CCC(C(=O)NNC(=O)c3ccccc3)CC2)n1`, 116%. To `Cc1cc(=O)n2nc(CN(C(=O)c3ccccc3F)c3ccc(Cl)cc3)nc2[nH]1` belongs 94.4%; to `N#C/C(=C/c1ccco1)c1nc(-c2cccc([N+](=O)[O-])c2)cs1`, 116 ± 17%.

Turning to `CCCCOc1ccc(C(=O)NCCc2cc3ccc(C)c(C)c3[nH]c2=O)cc1`, the host macrophage viability was 118%. The figure for `CCOC(=O)C1CCN(c2nc(C)nc3c2c(C)c(C)n3-c2ccccc2)CC1` is 107%; for `CCOc1ccc(-n2cc(-c3ccccc3)c3c(N4CCN(C(=O)COc5ccccc5C)CC4)ncnc32)cc1` it is 128%.

Turning to `CC1=C(C(N)=O)C(c2ccccc2)n2nc(-c3ccc(O)cc3)nc2N1` (stereo not drawn), the host macrophage viability amounted to 115%. Consider `O=C(NCCCc1nc2cc3ccccc3cc2[nH]1)c1ccc2nccnc2c1`, for which the host macrophage viability was determined as 114%. To `NC(=O)c1cc2cc(Br)ccc2o/c1=N\c1ccc(Oc2ccccc2)cc1` belongs 103%; to `O=c1c2nnn(Cc3ccccc3F)c2ncn1Cc1cccc([N+](=O)[O-])c1`, 108 ± 14%. The figure for `CCc1nnc(NC(=O)CSc2ncnc3c(-c4ccc(C)cc4)nsc23)s1` is 121%; for `COc1ccc(CCNC(=O)Cn2cnc3c(nnn3-c3cccc(Cl)c3)c2=O)cc1OC` it is 114 ± 8.5%. The figure for `O=C(NCc1ccccc1)c1cc2cc([N+](=O)[O-])ccc2s1` is 132%; for `Cc1cc(NC(=O)CSc2nnc(-c3ccncc3)o2)no1` it is 104%; for `CC1CCCN(S(=O)(=O)c2ccc(C(=O)Nc3ccccc3C#N)cc2)C1` (stereo not drawn) it is 116%. Turning to `Cc1cc(C)c2cc(CN(Cc3cccnc3)C(=O)Nc3ccccc3)c(Cl)nc2c1`, the host macrophage viability is 115%. For `O=C(CSc1nc(-c2ccccc2)cc(=O)[nH]1)N1CCN(c2ccccc2)CC1`, the host macrophage viability came out at 120%. On to `COc1cccc2cc(C(=O)Nc3ccc(N4CCOCC4)c(Cl)c3)c(=O)oc12`, for which the host macrophage viability stood at 115%. `CCS(=O)(=O)c1ccc(C(=O)Nc2nc3cc(C)cc(C)c3s2)cc1`: the host macrophage viability was found to be 128%. `O=C(CSc1nc2sc3c(c2c(=O)[nH]1)CCC3)Nc1ccccc1C(F)(F)F`: the host macrophage viability was 102%.

As to `COc1cc2ncc(C(=O)NCCO)c(O)c2cc1OC`, the host macrophage viability worked out at 120%. To `CCOC(=O)c1oc2ccccc2c1NC(=O)/C=C\c1ccc2c(c1)OCO2` belongs 121 ± 14%; to `O=C(COc1cccc2c1CCNC2=O)Nc1ccccc1C(F)(F)F`, 122%; to `COc1ccc(/N=c2\scc(-c3ccc(OC)c(OC)c3)n2CCCO)cc1`, 102%. In the case of `COc1ccc(C(=O)N(Cc2ccccc2)c2nc3[nH]c(C)cc(=O)n3n2)cc1`, the host macrophage viability was determined as 125%. To `O=C1Cc2cc(NS(=O)(=O)c3ccc4c(c3)NC(=O)CO4)ccc2N1` belongs 116%; to `Cn1c(=O)c2c(nc3n2CCCN3Cc2ccco2)n(C)c1=O`, 127%; to `O=C1c2cccc3cccc(c23)C(=O)N1CCCc1nc2sc3c(c2c(=O)[nH]1)CCCC3`, 123%. To `CC(=O)N1c2ccc(S(=O)(=O)NCCc3n[nH]c(-c4ccc(F)cc4)n3)cc2CC1C` (stereo not drawn) belongs 129%.

`O=C(CCCN1C(=O)/C(=C\c2ccco2)SC1=S)Nc1ccccc1C(=O)O`: the host macrophage viability was 116%. The figure for `Cc1nc2ccn(Cc3ccccc3)c(=O)c2cc1C(=O)NCCC1=CCCCC1` is 129%; for `O=C(NCc1ccccn1)c1ccc2c(=O)n(Cc3ccccc3Cl)c(=S)[nH]c2c1` it is 127%; for `Cc1nnc2sc(SCC(=O)Nc3nccs3)nn2c1=O` it is 116%. The figure for `O=C1NC(=O)/C(=C\c2ccc(-c3cccc(Cl)c3Cl)o2)S1` is 134%; for `Cc1cc(OC(=O)C(c2ccccc2)c2ccccc2)c([N+](=O)[O-])c(=O)[nH]1` it is 117%; for `O=C1N/C(=N/c2ccc(F)cc2)S/C1=C\c1ccc(F)cc1` it is 105%.

On to `CCc1nc(SCc2cccnc2)c2c(=O)n(C)c(=O)n(C)c2n1`, for which the host macrophage viability was 122 ± 4.2%.

On to `CCC(Sc1nc2ncccc2o1)C(=O)N1CCOc2ccc(C)cc21` (stereo not drawn), for which the host macrophage viability was 126%.

Turning to `CC(C)c1nc2ccccc2c2nnc(SCC(=O)NCc3ccccc3)n12`, the host macrophage viability came out at 117%. On to `O=C(c1cc(F)cc(F)c1)N1CCc2nc(N3CCCC3)[nH]c(=O)c2C1`, for which the host macrophage viability stood at 131%. The figure for `N#Cc1ccccc1NC(=O)/N=c1\c2ccccc2[nH]c(=O)n1CCc1ccccc1` is 132%; for `Cc1cccc(-c2noc(CCn3c(=O)[nH]c4ccccc4c3=O)n2)c1` it is 118%; for `CNC(=O)Cn1cc(OC)c(=O)cc1CSc1nnc(C)s1` it is 117%. With `Cc1nn(-c2nc3ccccc3n2C)c2c1C(c1ccsc1)CC(=O)N2` (stereo not drawn), the host macrophage viability was determined as 139%. The figure for `CC1=CC2=NC(=O)CC(C)(C(=O)Nc3cccc(-c4csnn4)c3)N2C=C1` (stereo not drawn) is 116%. For `COc1cc(C(=O)N/N=C/c2ccc(Br)o2)cc(OC)c1OC`, the host macrophage viability turned out to be 104%. The figure for `Cc1cccc(C)c1NC(=O)N1CCC(C(=O)c2ccc(F)cc2)CC1` is 113%; for `COc1ccccc1N1CCN(CCCNC(=O)c2c(-c3ccccc3)nnc3ccccc23)CC1` it is 100%; for `c1cnc(-c2nc(-c3ccc(N4CCCCC4)cc3)no2)cn1` it is 130%. To `Clc1ccc(C(CNc2nn3cnnc3c3ccccc23)N2CCCCC2)cc1` (stereo not drawn) belongs 113%. For `N#C/C(C(=O)c1ccc2c(c1)OCCO2)=C1/Nc2ccccc2S1`, the host macrophage viability worked out at 109 ± 5.8%. The figure for `COc1cc(OC)cc(C(=O)NCC(=O)N/N=C/c2ccccc2OC)c1` is 114%; for `O=C(NNc1nc2c(F)cccc2s1)c1cc(-c2cccs2)nc2ccccc12` it is 113 ± 3%.

For the molecule `O=C1NC(=O)c2cc(NC(=O)c3cccc4ccccc34)ccc21`, the host macrophage viability was determined as 124%. The figure for `O=C(NCCc1ccccc1)c1cnc2c(F)cccc2c1O` is 122%. Consider `Cc1cc(C)cc(NC(=O)CSc2nccn(-c3ccc(C)c(Cl)c3)c2=O)c1`, for which the host macrophage viability worked out at 135%. To `Cc1nnc(SCC(=O)Nc2ccc(OC(F)F)cc2)n(N)c1=O` belongs 112%. On to `O=C(CSc1nc2sc3c(c2c(=O)[nH]1)CCCC3)NNC(=O)c1ccco1`, for which the host macrophage viability worked out at 95.4%. Take `Cn1cnnc1SCc1cc(=O)c(OCC(=O)Nc2ccc(Cl)c(Cl)c2)co1`: the host macrophage viability worked out at 121%. The figure for `O=C(CCCS(=O)(=O)c1ccccc1)Nc1nc2ccc(Br)cc2s1` is 127%; for `CCc1ccccc1NS(=O)(=O)c1c(C)sc(C)c1-c1cc(C(F)(F)F)on1` it is 121%; for `CCOC(=O)c1sc2nc3c(cc2c1N)C(=O)CCC3` it is 136%. The figure for `O=C(CC1Nc2cccc3cccc(c23)NC1=O)Nc1ccc([N+](=O)[O-])cc1` (stereo not drawn) is 119%. To `COc1ccc(Nc2[nH]nnc2C(=O)Nc2ccc(C)c(Cl)c2)cc1Cl` belongs 110%. Take `O=C(Nc1ccc2sc(NC(=O)C3CCCCC3)nc2c1)c1cccnc1`: the host macrophage viability turned out to be 122%.

In the case of `O=S(=O)(c1ccc(F)cc1)N1CCN(c2cnccn2)CC1`, the host macrophage viability worked out at 110%. The figure for `N#Cc1ccc(C(=O)Nc2cccc3c2C(=O)c2ccccc2C3=O)cc1` is 110%; for `COc1ccc(NS(=O)(=O)c2cc(-c3ccno3)oc2C)cc1Cl` it is 115%. To `Cc1nc(N2CCC(C(=O)NC(C)C(=O)N3CCCCC3)CC2)c2c(C)c(C)oc2n1` (stereo not drawn) belongs 103%; to `Cc1ccc(NC(=O)CS(=O)CC(=O)NC2CCc3ccccc32)cc1Cl` (stereo not drawn), 126%; to `Cc1cccc(NC(=O)c2cnc(N3CCCCC3)c3ccccc23)n1`, 145%. The figure for `COc1cccc2c1OC(c1ccncc1)N1N=C(c3cc(C)ccc3O)CC21` (stereo not drawn) is 123%; for `Cn1c(=O)c2c(nc(CN3CCN(c4ccccc4)CC3)n2CCN2CCOCC2)n(C)c1=O` it is 113%. For `COc1ccccc1-c1ocnc1C(=O)N1CCN(c2ncccn2)CC1`, the host macrophage viability amounted to 105%. The figure for `O=C(O)c1ccccc1NC(=O)c1c2c(n3ccccc13)C(=O)c1ccccc1C2=O` is 111%. Consider `COC(=O)c1sc(NC(=O)CSc2nnc3ccccn23)c(C(=O)OC)c1C`, for which the host macrophage viability is 94.9%. Turning to `CC(C)c1ccc2[nH]c3nc(SCC(=O)NCc4ccco4)nnc3c2c1`, the host macrophage viability turned out to be 111%.

In the case of `CC(=O)c1ccc(NC(=O)CSc2nnnn2-c2cc(C)cc(C)c2)cc1`, the host macrophage viability turned out to be 123%. The figure for `CCOc1ccc(C(=O)Nc2ccc(-c3cn4ccc(C)nc4n3)cc2)cc1` is 101%; for `COCCNC(=O)COc1nc(C)nc2oc(C)c(C)c12` it is 125%; for `COc1cccc(/C=C2\SC(=S)N(c3ccc(O)c(C(=O)O)c3)C2=O)c1OC` it is 95.2%. To `c1ccc(OCCSc2nnc3sc4ccccc4n23)cc1` belongs 111%; to `O=C(Nc1nc2c(cc3c4c(cccc42)CC3)s1)c1ccc(N2C(=O)CCC2=O)cc1`, 104 ± 13%; to `C=CCOc1ccccc1NC(=O)c1cccc(-n2nc(C)c(Cl)c2C)c1`, 109%. To `O=C(NNc1nc2cc3c(cc2s1)OCO3)c1cccc(F)c1` belongs 105 ± 4.3%. Regarding `Cc1ccc2nc(NC(=O)CSc3c(C)cnc4c3c(=O)n(C)c(=O)n4C)sc2c1`, the host macrophage viability was 114%.

In the case of `NC(=O)C1CCN(C2=NC(=O)/C(=C\c3ccc(Cl)cc3Cl)S2)CC1`, the host macrophage viability was found to be 99.8%. `O=C1/C(=C\c2ccncc2)SC(=S)N1Nc1ccc([N+](=O)[O-])cc1[N+](=O)[O-]`: the host macrophage viability was 124%.

For `Cc1ccc(NS(=O)(=O)c2cc(-c3noc(C4CC4)n3)cs2)nc1`, the host macrophage viability is 117%. To `O=C(CSc1nnc(Cc2ccccc2)c(=O)[nH]1)Nc1cccc(C(F)(F)F)c1` belongs 123%.

These data come from the supplement of paper PMC12578635.
